Reference: PubChem BioAssay AID1259331 (Drosophila RNAi Screening Center, 2017)

Screen: 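Fly transmembrane-protein genes that affect zinc toxicity in cultured cells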 (primary screen)
Cells: Drosophila S2R+ cells
Reagents: long dsRNA against Drosophila genes
Duration: 5 days (4 days knock-down, then 1 day zinc)
Treatment: zinc chloride at 15 mM final level for 1 day
Detection: 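Total cellular ATP measured by luciferase luminescence as a viability proxy, turned into Z scores from three plate copies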
Reading the numbers: mean Z score: higher = more ATP than other wells, better survival under zinc; ATP luminescence: higher = more ATP, more viable cells
Call rule: 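Hit when the absolute Z score is greater than 1.5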
Calls: active = hit, ATP up or down; inactive = not a hit
Shown is a random part of about 3,100 deposited reagents. 126 of them (4.1%) were called active. 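Calls are per reagent; zinc was so toxic that few knock-downs lowered ATP further, so most hits raise ATP.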 Raw values vary from plate to plate and are shown uncorrected. A plus sign joins genes that one reagent is predicted to hit. No sequences are given here. Not stated in the record: the amount of reagent.

gene	amplicon	mean Z score	ATP luminescence, replicate 1	ATP luminescence, replicate 2	outcome
nAChRbeta1	DRSC08097	0.296	45379	44600	inactive
nAChRbeta1	DRSC08728	-0.453	24131	30027	inactive
BBIP1 + CG8135	DRSC16384	0.296	40382	60941	inactive
BBIP1 + CG8135	DRSC26052	0.497	57382	67290	inactive
CG4073	DRSC15542	-0.128	38222	57048	inactive
Tsp29Fb	DRSC03233	0.864	64954	49983	inactive
Tsp29Fb	DRSC26296	0.0682	52607	60769	inactive
ppk14	DRSC03238	0.716	49023	44205	inactive
ppk14	DRSC39786	-0.118	53738	55419	inactive
ppk15	DRSC14733	0.604	75244	76891	inactive
ppk15	DRSC27947	2.49	94611	91501	active
SCAP	DRSC04869	0.28	1.08e5	77754	inactive
SCAP	DRSC04907	0.192	88366	72637	inactive
CG44153	DRSC02228	0.33	55865	66199	inactive
CG44153	DRSC02902	0.259	52047	38839	inactive
CG44153	DRSC02903	0.135	75210	62278	inactive
Sys1	DRSC14372	-0.59	32616	47146	inactive
IA-2	DRSC00652	3.22	95314	1.09e5	active
IA-2	DRSC24588	-0.0787	55007	52898	inactive
IA-2	DRSC36830	0.178	50052	47025	inactive
IA-2	DRSC36831	1.86	63633	75501	active
Sfxn1-3	DRSC12183	-0.542	65558	52950	inactive
Tsp74F	DRSC10508	-0.0778	77373	57974	inactive

Records listed so far called active:
gene	amplicon	mean Z score	ATP luminescence, replicate 1	ATP luminescence, replicate 2	outcome
ppk15	DRSC27947	2.49	94611	91501	active
IA-2	DRSC00652	3.22	95314	1.09e5	active
IA-2	DRSC36831	1.86	63633	75501	active

Continued:
gene	amplicon	mean Z score	ATP luminescence, replicate 1	ATP luminescence, replicate 2	outcome
schlank	DRSC18102	-0.693	53087	56071	inactive
Osi6	DRSC12128	1.26	1.01e5	79071	inactive
Osi6	DRSC25935	2.38	94233	91351	active
CG13016	DRSC06271	-0.109	63993	64542	inactive
CG13016	DRSC39858	0.0939	58506	62947	inactive
CG10081	DRSC05962	0.273	84541	77045	inactive
CG10081	DRSC24787	0.119	51938	61386	inactive
Or33c	DRSC03388	0.373	60649	37227	inactive
CG5592	DRSC10524	-0.259	79017	60289	inactive
CG5592	DRSC39427	0.257	57580	50498	inactive
Tre1	DRSC18726	6.21	1.65e5	1.73e5	active
Tre1	DRSC28244	-0.143	55815	57357	inactive
Ten-m	DRSC11664	0.315	45423	47429	inactive
Ten-m	DRSC11882	0.0443	78949	59706	inactive
CG31792	DRSC02604	-0.291	44288	37947	inactive
CG31792	DRSC39634	-0.125	58664	62210	inactive
Oatp33Ea	DRSC02859	-0.234	50172	55848	inactive
Oatp33Ea	DRSC26461	0.63	67114	69664	inactive
frj	DRSC03250	2.45	92415	88999	active
frj	DRSC39648	-0.461	56876	51218	inactive
ppk9	DRSC04134	0.868	58681	41479	inactive
ppk9	DRSC04135	-0.119	71162	58728	inactive
Alg10	DRSC10892	0.2	81779	59706	inactive
Alg10	DRSC39451	-0.0893	49137	50618	inactive
